The text below walks through data of PubChem BioAssay AID248 (DTP/NCI, 2004).

The list is a part of this screen's results and no random one: it gathers tests that were run many times, whatever their T/C, doses with no T/C, and many T/C values between a quarter and a half above the control. Other doses and runs of a compound stand elsewhere. T/C: endpoint of the treated group in % of that of the vehicle group. Some doses have a count of surviving animals in place of a T/C: the source holds a T/C of zero for them, seemingly a mark for toxic or unscored doses. Some survivor counts are full or nearly so, which does not show that the dose was tolerated: survival well below the control is almost never listed, so the zero probably covers shortened survival too. Survivors were counted at the toxicity check, usually on the fifth day, unless a day is given; later deaths do not show. Schedule codes are those of the source, read here as Q, the interval in days (D) or hours (H), X, the number of doses. Some schedules carry Z or #; the key to these is not given. Some doses were run more than once; the results are listed from low to high. Some structures stand for samples that the source files as different forms (salt, stereo form or complex); doses refer to the form tested. For survival time, the PubChem record calls one and a half times the control and up active, and a quarter to a half above the control has no call in these data; cut-offs in other NCI protocols can differ.

For the test, the system named is L1210 leukemia ip in BDF1 mice, survival T/C. The test can be described thus: NCI In Vivo Anticancer Drug Screen. Data for tumor model L1210 Leukemia (intraperitoneal) in B6D2F1 (BDF1) mice. To be noted: T/C endpoint: mean survival time, higher T/C = longer survival.
The mark [1] stands for this setting: dose: 100.0 mg/kg/injection, schedule: Q01DX009 (ip), vehicle: saline with Tween-80.
[2] abbreviates: dose: 200.0 mg/kg/injection, schedule: Q04DX003 (ip), vehicle: saline.
Setting [3] is: dose: 400.0 mg/kg/injection, schedule: Q04DX003 (ip), vehicle: saline.
The mark [4] stands for this setting: dose: 400.0 mg/kg/injection, schedule: Q01DX009 (ip), vehicle: Klucel (hydroxypropylcellulose) (HPC).

As for `N#Cc1[nH]cnc1[N+]#N`, the survivor count is 2 of 6 (dose: 25.0 mg/kg/injection, schedule: Q01DX001 (ip), vehicle: other); 0 of 6 (dose: 50.0 mg/kg/injection, schedule: Q01DX001 (ip), vehicle: other); 0 of 6 (dose: 100.0 mg/kg/injection, schedule: Q01DX001 (ip), vehicle: other); 0 of 6 (dose: 200.0 mg/kg/injection, schedule: Q01DX001 (ip), vehicle: other); 0 of 6 (dose: 400.0 mg/kg/injection, schedule: Q01DX001 (ip), vehicle: other).
On to `O=NN(CCCl)C(=O)Nc1ccc(Cn2cnc3c(=O)[nH]cnc32)cc1`, for which the T/C by setting is: (dose: 2.0 mg/kg/injection, schedule: Q01DX009 (ip), vehicle: other) 138 % of control; (dose: 3.0 mg/kg/injection, schedule: Q01DX009 (ip), vehicle: other) 128 % of control; (dose: 23.0 mg/kg/injection, schedule: Q01DX001 (ip), vehicle: other) 148 % of control; (dose: 93.0 mg/kg/injection, schedule: Q01DX001 (ip), vehicle: other) 126 % of control. Also, the survivor count (dose: 187.0 mg/kg/injection, schedule: Q01DX001 (ip), vehicle: other) was 9 of 10; the survivor count (dose: 250.0 mg/kg/injection, schedule: Q01DX001 (ip), vehicle: other) is on record as 6 of 10; the survivor count (dose: 375.0 mg/kg/injection, schedule: Q01DX001 (ip), vehicle: other) is listed as 1 of 10.
As to `OCCS`, for the setting “dose: 100.0 mg/kg/injection, schedule: Q01DX001 (ip), vehicle: saline”, the T/C was 144 % of control. The survivor count (dose: 400.0 mg/kg/injection, schedule: Q01DX001 (ip), vehicle: saline) is 2 of 4.
Take `Nc1ccc(S(=O)(=O)O)c2cccc(O)c12`: for the setting “dose: 400.0 mg/kg/injection, schedule: Q04DX002 (ip), vehicle: carboxymethylcellulose (CMC)”, the survivor count was 1 of 3.
Regarding `Cn1nc(N)c2ncc(C(Cl)(Cl)Cl)nc21`, the survivor count under setting [1] is 1 of 6.
As to `CCCCCCCCCCCCCCCCCCNC(=O)Nc1ccccc1[N+](=O)[O-]`, the survivor count is given as 4 of 6 (dose: 200.0 mg/kg/injection, schedule: Q01DX009 (ip), vehicle: DMSO) and 5 of 6 (dose: 400.0 mg/kg/injection, schedule: Q04DX003 (ip), vehicle: DMSO).
For `CC(C)CCCC(C)C1CCC2C3CC(O)C45CC4CCC5(C)C3CCC12C` (configuration not stated), the survivor count (dose: 100.0 mg/kg/injection, schedule: Q04DX002 (ip), vehicle: Klucel (hydroxypropylcellulose) (HPC)) was 3 of 3.
With `COCc1ccc(N2C(N)=NC(N)=NC2(C)C)cc1`, the survivor count runs as follows: under setting [2], 0 of 6; under setting [3], 0 of 6.
On to `COc1cc(CN(C)C2CCCCC2)cc(OC)c1OC`, for which the survivor count reads like this: under setting [2], 4 of 4; under setting [3], 0 of 4.
Turning to `CC(=O)Nc1cc(C)cc(C)n1`, the survivor count (dose: 350.0 mg/kg/injection, schedule: Q01DX009 (ip), vehicle: saline with Tween-80) is listed as 0 of 6.
Turning to `CCC(C)NC(=S)Nc1ccccc1` (configuration not stated), the survivor count is reported as 0 of 6 (dose: 75.0 mg/kg/injection, schedule: Q01DX001 (ip), vehicle: other); 0 of 6 (dose: 150.0 mg/kg/injection, schedule: Q01DX001 (ip), vehicle: other); 0 of 6 (dose: 300.0 mg/kg/injection, schedule: Q01DX001 (ip), vehicle: other).
On to `c1ccc(C(NC2CC3CCC2C3)c2ccccc2)cc1` (configuration not stated), for which the survivor count (dose: 400.0 mg/kg/injection, schedule: Q01DX001 (ip), vehicle: Klucel (hydroxypropylcellulose) (HPC)) is given as 1 of 6.
Regarding `N=C(N)N=Nc1ccc(NN=C(N)N)c2ccccc12`, the survivor count (dose: 60.0 mg/kg/injection, schedule: Q01DX Z (ip), vehicle: saline) was 3 of 6 and the survivor count (dose: 120.0 mg/kg/injection, schedule: Q01DX Z (ip), vehicle: saline) is reported as 0 of 6.
In the case of `NC(Cc1cccs1)C(=O)O` (configuration not stated), the survivor count is 9 of 10 (dose: 125.0 mg/kg/injection, schedule: Q01DX Z (ip), vehicle: carboxymethylcellulose (CMC)) and 10 of 10 (dose: 500.0 mg/kg/injection, schedule: Q01DX Z (ip), vehicle: carboxymethylcellulose (CMC)).
As to `CN(C)CC/C=C1\c2ccccc2CN(C)c2ccccc21`, the survivor count is, setting by setting: (dose: 50.0 mg/kg/injection, schedule: Q01DX009 (ip), vehicle: saline with Tween-80) 3 of 5; under setting [1], 1 of 6; (dose: 200.0 mg/kg/injection, schedule: Q01DX009 (ip), vehicle: saline) 0 of 6; (dose: 200.0 mg/kg/injection, schedule: Q04DX003 (ip), vehicle: saline with Tween-80) 1 of 4; under setting [2], 2 of 4; (dose: 400.0 mg/kg/injection, schedule: Q01DX009 (ip), vehicle: saline) 0 of 6. Besides, the survivor count (dose: 400.0 mg/kg/injection, schedule: Q04DX003 (ip), vehicle: saline with Tween-80) is given as 0 of 4 and the survivor count under setting [3] is given as 0 of 4.
Take `CCCCCCCCC(=O)N1CCOCC1`: the survivor count is 0 of 6 (dose: 75.0 mg/kg/injection, schedule: Q01DX009 (ip), vehicle: saline); 0 of 6 and 2 of 6 (dose: 100.0 mg/kg/injection, schedule: Q01DX009 (ip), vehicle: Klucel (hydroxypropylcellulose) (HPC)); 3 of 6 (dose: 100.0 mg/kg/injection, schedule: Q04DX003 (ip), vehicle: Klucel (hydroxypropylcellulose) (HPC)); 0 of 6 (dose: 150.0 mg/kg/injection, schedule: Q01DX009 (ip), vehicle: saline); 0 of 6 (dose: 200.0 mg/kg/injection, schedule: Q01DX009 (ip), vehicle: Klucel (hydroxypropylcellulose) (HPC)); 0 of 6 under setting [4].
Consider `CC(C)CCN=C(N)N=C(N)N`, for which the survivor count runs as follows: (dose: 200.0 mg/kg/injection, schedule: Q04DX002 (ip), vehicle: saline) 0 of 3; (dose: 400.0 mg/kg/injection, schedule: Q04DX002 (ip), vehicle: saline) 0 of 3.
With `CN=C(NC)c1cccc(NC(=O)c2cccc(C(=O)Nc3cccc(C(=NC)NC)c3)c2)c1`, the survivor count was 0 of 6 (dose: 33.0 mg/kg/injection, schedule: Q01DX Z (ip), vehicle: carboxymethylcellulose (CMC)) and 0 of 6 (dose: 50.0 mg/kg/injection, schedule: Q01DX Z (ip), vehicle: carboxymethylcellulose (CMC)).
For the compound `Clc1ccc(CNc2ccccn2)s1`, the survivor count is, setting by setting: (dose: 75.0 mg/kg/injection, schedule: Q01DX001 (ip), vehicle: saline) 6 of 6; (dose: 300.0 mg/kg/injection, schedule: Q01DX001 (ip), vehicle: saline) 6 of 6.
With `CC[n+]1cccc(NC(=O)c2ccc(NC(=O)c3ccc(C(=O)Nc4ccc(C(=O)Nc5ccc[n+](CC)c5)c(N)c4)cc3)cc2N)c1`, the T/C reads like this: (dose: 1.25 mg/kg/injection, schedule: Q01DX015 (ip), vehicle: other) 133 % of control; (dose: 6.25 mg/kg/injection, schedule: Q01DX001 (ip), vehicle: other) 127 % of control; (dose: 12.5 mg/kg/injection, schedule: Q01DX001 (ip), vehicle: other) 148 % of control; (dose: 13.0 mg/kg/injection, schedule: Q01DX015 (ip), vehicle: other) 130 % of control.
Consider `CCCCc1cn(C(C)=O)nn1`, for which the survivor count (dose: 400.0 mg/kg/injection, schedule: Q04DX002 (ip), vehicle: saline with Tween-80) is listed as 1 of 3.
For the compound `O=C(O)/C(=C\c1ccccc1)c1cccc2ccccc12`, the survivor count under setting [4] is listed as 0 of 6.
For `CCOC(=O)Nc1cc2c(c(NC(=O)OCC)n1)N=C(CN(C)c1ccccc1)CN2`, the survivor count under setting [1] is listed as 6 of 6 and the survivor count (dose: 400.0 mg/kg/injection, schedule: Q01DX001 (ip), vehicle: saline with Tween-80) is recorded as 3 of 6. Further, the T/C was 133 % of control (dose: 200.0 mg/kg/injection, schedule: Q01DX001 (ip), vehicle: saline with Tween-80) and 146 % of control (dose: 300.0 mg/kg/injection, schedule: Q01DX001 (ip), vehicle: saline with Tween-80).
